At least one compound was matched to its structure with a doubt left.
Test system: LAB-1
Assay: Antibiotic sensitivity testing of LAB-1
Assay type: cell-based
Description: A variety of biochemical tests were performed in order to identify the species and the genus of organism. The tests included: assessment of growth conditions, culture appearance, cell appearance and staining characteristics, optimal temperature and pH growth range, oxygen requirements, antibiotic sensitivity testing, tests for catalase and oxidase (using TAXOS N™ disks), amino acid utilization as carbon source, nitrogen fixation, motility test, and a variety of commercially available tests from MICRO-ID™, OXYFERM™, ENTEROTUBE™ and BIOLOG GN MICROPLATE™.

## CN(C)[C@@H]1C(O)=C(C(N)=O)C(=O)[C@@]2(O)C(O)=C3C(=O)c4c(O)cccc4[C@@](C)(O)[C@H]3C[C@@H]12 [Tetracycline]
  Antibiotic Susceptibility: sensitive
